# Data: the supplement of paper PMC8007513
# The other results are listed elsewhere or left out. Many values rest on one well or one pass, so single values are uncertain.
# System: Saccharomyces cerevisiae BY4743
# Test: growth (OD600) relative to untreated control; higher = less growth inhibition
# Conditions: compound concentration: 133 uM; 20 h
# Experimental: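 NMCCC compounds (133 uM, no IPBC) tested alone against Saccharomyces cerevisiae BY4743 in YPD, 96-well plates, starting OD600 ~0.1. Growth was read as OD600 at 20 h and expressed as % of the untreated control. Single pass.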
row,SMILES,growth
1,CCOC(=O)C(Cc1ccccc1)NS(=O)(=O)c1ccc(NC(C)=O)cc1 (centres undefined),103%
2,COC(=O)c1c(C)nn(-c2ccc(F)cc2)c1-n1cccc1,94.9%
3,NC(=O)Nc1cccc(C(=O)N2CCOc3ccccc32)c1,97%
4,CCOC(=O)N1CCN(C(=O)c2noc3c2CCCCC3)CC1,89.1%
5,NC(=O)c1sc2nc(-c3cccs3)ccc2c1N,96%
6,CNC(=O)NC(=O)CSc1nnc(Nc2ccc(Oc3ccccc3)cc2)s1,100%
7,CCCOc1ccc(C(F)(F)F)cc1NC(=O)C1CSC2(C)CCC(=O)N12 (centres undefined),104%
8,CC1=CC=CC=C1C(=O)N(C\2C[S](=O)(=O)\C=C2)C3=CC=CC=C3 (centres undefined),100%
9,COC(=O)C1=CC=C(CN(C)C(=O)\C2=N\N(C(=O)CC2)C3=CC(=CC=C3C)C)C=C1,104%
10,CCOC(=O)N1CCC(NC(=O)c2cc3cc(Cl)ccc3[nH]2)CC1,85.4%
11,CCOC(=O)Cc1c(O)nc2ccc(C)cc2c1-c1ccccc1,109%
12,NC(=O)c1cc(Cl)ccc1OCC(=O)Nc1ccccc1Cc1ccccc1,94.9%
13,OC1(C\C(=N/N1C(=O)C2CC2)C3=CC=CC=C3)C(F)(F)F (centres undefined),98.2%
14,CCS(=O)(=O)c1ccc2oc(SCC(=O)N3CC(C)OC(C)C3)nc2c1 (centres undefined),93.2%
15,Cc1cccc(NC(=O)CN(C)C(=O)c2cnn(-c3ccccc3F)c2C)c1C,110%
16,COc1ccccc1NC(=O)c1ccc(NC(=O)CSc2ccccn2)cc1,84.2%
17,CCN(CC)[S](=O)(=O)C1=CC=C(NC(=O)N\C2=C\N(C)C(=O)C3=CC=CC=C23)C=C1,104%
18,CC(C)c1nc(SC(C(=O)Nc2ccc(F)cc2)C(C)C)n[nH]1 (centres undefined),98.9%
19,COC(=O)[C@H](CCSC)NC(=O)Nc1ccc(N2CCC(C)CC2)c(Cl)c1,86.4%
20,CCOC(=O)C1=C(C)N=C(C)/C(=C(/O)OCC)C1c1ccc(C)o1 (centres undefined),101%

# An excerpt of these results, with tabs.
row	SMILES	growth
19	COC(=O)[C@H](CCSC)NC(=O)Nc1ccc(N2CCC(C)CC2)c(Cl)c1	86.4%
20	CCOC(=O)C1=C(C)N=C(C)/C(=C(/O)OCC)C1c1ccc(C)o1 (centres undefined)	101%

# (cont.)

row,SMILES,growth
1,Cc1ccc(S(=O)(=O)CCc2nc(S(=O)(=O)c3ccc(C)cc3)c(N(C)C)o2)cc1,101%
2,Nc1cc(N)nc(SC(C(=O)N2CCOCC2)c2ccccc2)n1 (centres undefined),104%
3,CCOC(=O)c1c(-c2ccc(Cl)cc2)nn2c1NCN(CCOC)C2,109%
4,CN(c1ccccc1)S(=O)(=O)c1ccccc1C(=O)OCC(=O)c1ccc(Cl)s1,102%
5,CC(Oc1ccc(Cl)cc1C(N)=O)C(=O)Nc1ccc(C#N)cc1 (centres undefined),108%
6,COC(=O)CCCC(=O)NC(c1ccc(Cl)cc1)c1nnc(-c2ccccc2)o1 (centres undefined),106%
7,CC(C)(C)OC(=O)NC1CCN(C(=O)Nc2ccc(Cl)c(C(F)(F)F)c2)CC1,97%
8,COC(=O)\C1=C(/N)OC2=CC(=NC(=C2C1C3=CC=CC=C3)O)C (centres undefined),90.9%
9,CC1CCN(C(=O)C(NC(=O)NC(C)c2cccs2)c2ccccc2)CC1 (centres undefined),110%
10,CCN(CC)C(=O)Cn1c(S(=O)(=O)Cc2ccccc2)nc2ccccc21,83.1%
11,CN(C)C1(CCCCCC1)CNC(=O)CN2\N=C3\CCCCCN3C2=O,103%
12,CCN(CC)CCNC(=O)c1nn(C)c2c1CSc1ccccc1-2,103%
13,COC1=CC=CC(=C1)C/2=N/[S](=O)(=O)N(C)/C(=C2)C(=O)NC3=C[N](N=C3)C(C)C,109%
14,COC1=CC=C(OC)C(=C1)NC(=O)CN2\C=C/N(CC3=CC=C(C)C=C3)C(=O)C2=O,101%
15,COc1ccc(C2N(c3ccc(Cl)cc3)C(=O)C(C)S2(=O)=O)cc1 (centres undefined),101%
16,CCN(CC)S(=O)(=O)c1c(C)nn(Cc2coc(-c3cccs3)n2)c1C,101%
17,CN(CC(=O)NC1=CC=CC=C1Cl)C(=O)CN2\N=C/C(=O)C3=CC=CC=C23,102%
18,Cc1noc(C)c1C(=O)OCC(=O)NCC1CCCO1 (centres undefined),91.6%
19,O=C(C1CCS(=O)(=O)C1)N1CCc2ccccc21 (centres undefined),93.6%
